{"source": "patent US6268366A", "about": "“Amide derivatives of substituted quinoxaline 2,3-diones as glutamate receptor antagonists” (Warner-Lambert Company, priority 2000, dated 2001)", "key": {"AMPA receptors": {"biological_target": "AMPA receptors", "test": "AMPA receptor binding affinity (Honore et al.)"}, "[1]": {"biological_target": "kainate site (non-NMDA receptor)", "test": "kainate site (non-NMDA receptor) binding affinity (London and Coyle)"}}, "note": "For at least one compound, name, drawing or mass did not settle the structure.", "data": [{"compound": "Cc1c([N+](=O)[O-])cc2[nH]c(=O)c(=O)[nH]c2c1CN(C)C(=O)C(C)(C)C", "note": "[Compound 2, 5-(Isopropyl-methyl-amino)-methyl-6-methyl-7-nitro-1,4-dihydro-quinoxaline-2,3-dione]", "values": [{"measurement": "IC50", "setting": "AMPA receptors", "value": 1.26, "unit": "µM"}, {"measurement": "IC50 KA", "setting": "[1]", "value": 11.97, "unit": "µM"}]}]}
